From patent US20250127913A1, “BIFUNCTIONAL FOLATE RECEPTOR BINDING COMPOUNDS” (LYCIA THERAPEUTICS, INC., priority 2021, published 2025)
At least one compound was matched to its structure with a doubt left.

By UniProt entry, the sequences of proteins in these tests, tags left out. Residues count along the entry.
UniProt P01375, 77-233 limits assumed: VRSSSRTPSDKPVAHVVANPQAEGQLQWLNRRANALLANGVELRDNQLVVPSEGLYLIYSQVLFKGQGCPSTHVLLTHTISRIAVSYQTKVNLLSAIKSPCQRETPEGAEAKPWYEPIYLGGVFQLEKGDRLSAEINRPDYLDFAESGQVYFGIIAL

Target: TNFα trimer (Homo sapiens, UniProt P01375)
Assay: SPR binding kinetics of compounds to TNFα trimer
Conditions: TNFalpha trimer immobilized
Procedure: Streptavidin 100 μg/mL Streptavidin (Invitrogen Cat #: 434302) diluted in 10 mM sodium acetate, pH 4.5) was immobilized to both the reference and active surfaces as described in Example 51. The surfaces were conditioned with three injections of running Buffer (10 mM HEPES, 150 mMNaCl, 0.05% T20, pH 7.5, 2% DMSO) at a flow rate of 10 μL/min, Contact time: 60 s. Flow rate: 10 μL/min. The active surface was treated with biotinylated linked TNFα trimer 20 μg/mL diluted in running buffer at a flow rate of 5 μL/min contact time: 600 s, yielding a final response of ˜3000 RU. Example compounds were then serially diluted 1:1 in running buffer (10 mM HEPES, 150 mM NaCl, 0.05% T20, pH 7.5, 2% DMSO) from 30 uM to 937.5 nM and flowed over the active and reference surfaces from lowest concentration to greatest concentration in the single-cycle kinetics format, and then allowed to dissociate in running buffer for 7200 s, at 30 μL/min. Sensorgrams were solvent corrected, double-referenced, and the data fitted and analyzed in Biacore Insight Evaluation Software Version 3.0.11.15423.

**Q.** Which results are given for `Cc1nc2cc(F)c(-c3cnc(OCCCCCn4cc(COCCOCCNC(=O)CC[C@H](NC(=O)c5ccc(NCc6cnc7nc(N)nc(O)c7n6)cc5)C(=O)O)nn4)nc3)nc2c(N[C@H](C)c2cc(C#N)ccc2F)c1Cl` [Compound I-16, N2-(4-(((2-amino-4-hydroxypteridin-6-yl)methyl)amino)benzoyl)-N5-(2-(2-((1-(5-((5-(7-chloro-8-((I-1-(5-cyano-2-fluorophenyl)ethyl)amino)-3-fluoro-6-methyl-1,5-naphthyridin-2-yl)pyrimidin-2-yl)oxy)pentyl)-1H-1,2,3-triazol-4-yl)methoxy)ethoxy)ethyl)-L-glutamine]?
**A.** Rmax: 43.7 RU; Stoichiometry: 0.7
